# ± gives the standard deviation of the averaged measurements. The list shows a part of the results. The list holds hits alone, and they repeat only in part.
# Chains of the proteins cited; added tags and fusions are not shown.
# MORF4L1, Q9UBU8, UniProt Q9UBU8, whole entry: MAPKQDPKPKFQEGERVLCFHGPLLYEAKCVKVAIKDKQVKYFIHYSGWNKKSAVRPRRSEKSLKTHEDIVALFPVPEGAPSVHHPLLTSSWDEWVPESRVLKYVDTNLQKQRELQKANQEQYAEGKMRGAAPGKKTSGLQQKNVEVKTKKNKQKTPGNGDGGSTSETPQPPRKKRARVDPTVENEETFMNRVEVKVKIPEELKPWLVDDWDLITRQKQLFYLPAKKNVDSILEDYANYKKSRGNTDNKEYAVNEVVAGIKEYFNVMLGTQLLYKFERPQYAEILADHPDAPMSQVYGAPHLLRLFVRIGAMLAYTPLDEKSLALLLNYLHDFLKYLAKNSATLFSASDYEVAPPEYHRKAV
# MORF4L2, Q15014, UniProt Q15014, whole entry: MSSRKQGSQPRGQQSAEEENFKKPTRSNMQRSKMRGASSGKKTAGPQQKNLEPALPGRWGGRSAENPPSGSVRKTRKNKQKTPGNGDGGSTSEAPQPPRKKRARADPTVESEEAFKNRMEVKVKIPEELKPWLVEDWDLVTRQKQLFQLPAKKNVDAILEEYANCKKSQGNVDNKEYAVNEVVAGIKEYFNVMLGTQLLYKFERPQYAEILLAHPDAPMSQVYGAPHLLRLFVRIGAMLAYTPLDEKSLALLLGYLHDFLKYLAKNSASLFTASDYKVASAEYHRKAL
# MPG, P29372, UniProt P29372, whole entry: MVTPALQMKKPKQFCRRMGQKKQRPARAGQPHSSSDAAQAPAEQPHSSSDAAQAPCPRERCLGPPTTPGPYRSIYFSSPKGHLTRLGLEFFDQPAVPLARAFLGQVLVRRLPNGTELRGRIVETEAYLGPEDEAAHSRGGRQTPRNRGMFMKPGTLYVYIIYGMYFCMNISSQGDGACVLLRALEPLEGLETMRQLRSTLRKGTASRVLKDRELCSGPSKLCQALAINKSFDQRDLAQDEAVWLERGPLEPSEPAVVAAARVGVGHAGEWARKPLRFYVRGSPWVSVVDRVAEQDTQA
# PIN4, Q9Y237, UniProt Q9Y237, whole entry: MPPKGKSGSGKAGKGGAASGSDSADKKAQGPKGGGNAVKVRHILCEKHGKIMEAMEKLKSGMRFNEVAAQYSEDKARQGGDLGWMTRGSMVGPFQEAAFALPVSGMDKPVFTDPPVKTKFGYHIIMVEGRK
# PLK1, P53350, UniProt P53350, whole entry: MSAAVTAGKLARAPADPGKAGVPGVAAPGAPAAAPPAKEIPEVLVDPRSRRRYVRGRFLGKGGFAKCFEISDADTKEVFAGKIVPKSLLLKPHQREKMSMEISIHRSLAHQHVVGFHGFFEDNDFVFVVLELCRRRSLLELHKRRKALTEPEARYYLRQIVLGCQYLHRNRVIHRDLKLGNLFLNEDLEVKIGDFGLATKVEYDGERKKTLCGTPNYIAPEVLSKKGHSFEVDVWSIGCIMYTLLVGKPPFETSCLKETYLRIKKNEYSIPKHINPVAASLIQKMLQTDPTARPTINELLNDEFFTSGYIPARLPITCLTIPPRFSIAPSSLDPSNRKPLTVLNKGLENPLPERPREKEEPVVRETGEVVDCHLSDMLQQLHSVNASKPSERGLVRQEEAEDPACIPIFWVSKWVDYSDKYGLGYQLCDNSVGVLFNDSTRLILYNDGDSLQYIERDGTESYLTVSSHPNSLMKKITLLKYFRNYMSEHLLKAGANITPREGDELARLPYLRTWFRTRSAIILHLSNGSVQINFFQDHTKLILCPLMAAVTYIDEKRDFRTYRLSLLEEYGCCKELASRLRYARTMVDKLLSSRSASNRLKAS
# Key:
# Test in all cases: PRISMA enrichment of interactor (LFQ) in peptide spot vs all other peptide spots (log2 fold change); higher = stronger / more specific binding of the interactor to the peptide
# MAP7D1, Q3KQU3 = biological target: MAP7D1, Q3KQU3
# Procedure: (§1)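 PRISMA: 221 full-length sORF-encoded peptides (3-15 aa), plus SOS1/GLUT1 control peptides, were spot-synthesized on cellulose membranes in triplicate. Membranes were incubated with HEK293T lysate, and bound proteins were identified by LC-MS/MS with LFQ. Enrichment is the log2 fold change versus all other peptide spots; only significant interactors are listed (cutoff c=6, x0=2.8).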
# MAZ, P56270 = biological target: MAZ, P56270
# Procedure: as §1
# MORF4L1, Q9UBU8 = biological target: MORF4L1, Q9UBU8
# Procedure: as §1
# MORF4L2, Q15014 = biological target: MORF4L2, Q15014
# Procedure: as §1
# MPG, P29372 = biological target: MPG, P29372
# Procedure: as §1
# NIFK, Q9BYG3 = biological target: NIFK, Q9BYG3
# Procedure: as §1
# NME4, O00746 = biological target: NME4, O00746
# Procedure: as §1
# [1] = substrate: NONO, Q15233
# Procedure: as §1
# [2] = substrate: NOSIP, Q9Y314
# Procedure: as §1
# NSA2, O95478 = biological target: NSA2, O95478
# Procedure: as §1
# NTHL1, P78549 = biological target: NTHL1, P78549
# Procedure: as §1
# NUDT16L1, Q9BRJ7 = biological target: NUDT16L1, Q9BRJ7
# Procedure: as §1
# NUSAP1, Q9BXS6 = biological target: NUSAP1, Q9BXS6
# Procedure: as §1
# NXF1, Q9UBU9 = biological target: NXF1, Q9UBU9
# Procedure: as §1
# PAK4, O96013 = biological target: PAK4, O96013
# Procedure: as §1
# PIN4, Q9Y237 = biological target: PIN4, Q9Y237
# Procedure: as §1
# PLK1, P53350 = biological target: PLK1, P53350
# Procedure: as §1
# POLRMT, O00411 = biological target: POLRMT, O00411
# Procedure: as §1
# PPIL2, Q13356 = biological target: PPIL2, Q13356
# Procedure: as §1
# PRRC2A, P48634 = biological target: PRRC2A, P48634
# Procedure: as §1
# PSPC1, Q8WXF1 = biological target: PSPC1, Q8WXF1
# Procedure: as §1
# PSRC1, Q6PGN9 = biological target: PSRC1, Q6PGN9
# Procedure: as §1
# PUM3, Q15397 = biological target: PUM3, Q15397
# Procedure: as §1
# PUSL1, Q8N0Z8 = biological target: PUSL1, Q8N0Z8
# Procedure: as §1
# PYCR1, P32322 = biological target: PYCR1, P32322
# Procedure: as §1
# PYCR2, Q96C36 = biological target: PYCR2, Q96C36
# Procedure: as §1
# RBM33, Q96EV2 = biological target: RBM33, Q96EV2
# Procedure: as §1
# RBMX, P38159 = biological target: RBMX, P38159
# Procedure: as §1
# REPIN1, Q9BWE0 = biological target: REPIN1, Q9BWE0
# Procedure: as §1
# RPS19BP1, Q86WX3 = biological target: RPS19BP1, Q86WX3
# Procedure: as §1
# RPUSD3, Q6P087 = biological target: RPUSD3, Q6P087
# Procedure: as §1
# SAFB, Q15424 = biological target: SAFB, Q15424
# Procedure: as §1
# SAFB2, Q14151 = biological target: SAFB2, Q14151
# Procedure: as §1
# SERF2, P84101 = biological target: SERF2, P84101
# Procedure: as §1
# SFPQ, P23246 = biological target: SFPQ, P23246
# Procedure: as §1
# SLTM, Q9NWH9 = biological target: SLTM, Q9NWH9
# Procedure: as §1
# SND1, Q7KZF4 = biological target: SND1, Q7KZF4
# Procedure: as §1
# SPTY2D1, Q68D10 = biological target: SPTY2D1, Q68D10
# Procedure: as §1
# TBC1D4, O60343 = biological target: TBC1D4, O60343
# Procedure: as §1
# TBL2, Q9Y4P3 = biological target: TBL2, Q9Y4P3
# Procedure: as §1
# THYN1, Q9P016 = biological target: THYN1, Q9P016
# Procedure: as §1
# TMA16, Q96EY4 = biological target: TMA16, Q96EY4
# Procedure: as §1
# UTP11, Q9Y3A2 = biological target: UTP11, Q9Y3A2
# Procedure: as §1
# UTP15, Q8TED0 = biological target: UTP15, Q8TED0
# Procedure: as §1
# ZC2HC1A, Q96GY0 = biological target: ZC2HC1A, Q96GY0
# Procedure: as §1
# ZC3HAV1L, Q96H79 = biological target: ZC3HAV1L, Q96H79
# Procedure: as §1
# ZNF22, P17026 = biological target: ZNF22, P17026
# Procedure: as §1
# ZNF512, Q96ME7 = biological target: ZNF512, Q96ME7
# Procedure: as §1
# ZNF706, Q9Y5V0 = biological target: ZNF706, Q9Y5V0
# Procedure: as §1
# ZNF768, Q9H5H4 = biological target: ZNF768, Q9H5H4
# Procedure: as §1
binder,measurement,setting,value
MAEAGDFW [INSIG2],PRISMA enrichment of interactor (log2),"MAP7D1, Q3KQU3",4.6
same,PRISMA enrichment of interactor (log2),"MAZ, P56270",6.27 ± 1.5
same,PRISMA enrichment of interactor (log2),"MORF4L1, Q9UBU8",6.55
same,PRISMA enrichment of interactor (log2),"MORF4L2, Q15014",8.69
same,PRISMA enrichment of interactor (log2),"MPG, P29372",7.66
same,PRISMA enrichment of interactor (log2),"NIFK, Q9BYG3",4.86
same,PRISMA enrichment of interactor (log2),"NME4, O00746",6.38
same,PRISMA enrichment of interactor (log2),[1],6.44
same,PRISMA enrichment of interactor (log2),[2],4.62
same,PRISMA enrichment of interactor (log2),"NSA2, O95478",4.85
same,PRISMA enrichment of interactor (log2),"NTHL1, P78549",6.13
same,PRISMA enrichment of interactor (log2),"NUDT16L1, Q9BRJ7",6.44
same,PRISMA enrichment of interactor (log2),"NUSAP1, Q9BXS6",6.22
same,PRISMA enrichment of interactor (log2),"NXF1, Q9UBU9",5.11
same,PRISMA enrichment of interactor (log2),"PAK4, O96013",4.34
same,PRISMA enrichment of interactor (log2),"PIN4, Q9Y237",6.52
same,PRISMA enrichment of interactor (log2),"PLK1, P53350",8.18
same,PRISMA enrichment of interactor (log2),"POLRMT, O00411",5.91
same,PRISMA enrichment of interactor (log2),"PPIL2, Q13356",6.85
same,PRISMA enrichment of interactor (log2),"PRRC2A, P48634",4.96
same,PRISMA enrichment of interactor (log2),"PSPC1, Q8WXF1",6.07
same,PRISMA enrichment of interactor (log2),"PSRC1, Q6PGN9",5.64
same,PRISMA enrichment of interactor (log2),"PUM3, Q15397",4.58
same,PRISMA enrichment of interactor (log2),"PUSL1, Q8N0Z8",4.66
same,PRISMA enrichment of interactor (log2),"PYCR1, P32322",5.98
same,PRISMA enrichment of interactor (log2),"PYCR2, Q96C36",6.31
same,PRISMA enrichment of interactor (log2),"RBM33, Q96EV2",5.98
same,PRISMA enrichment of interactor (log2),"RBMX, P38159",5.89
same,PRISMA enrichment of interactor (log2),"REPIN1, Q9BWE0",4.35
same,PRISMA enrichment of interactor (log2),"RPS19BP1, Q86WX3",4.95
same,PRISMA enrichment of interactor (log2),"RPUSD3, Q6P087",6.68
same,PRISMA enrichment of interactor (log2),"SAFB, Q15424",6.5
same,PRISMA enrichment of interactor (log2),"SAFB2, Q14151",5.91
same,PRISMA enrichment of interactor (log2),"SERF2, P84101",7
same,PRISMA enrichment of interactor (log2),"SFPQ, P23246",6.33
same,PRISMA enrichment of interactor (log2),"SLTM, Q9NWH9",6.67
same,PRISMA enrichment of interactor (log2),"SND1, Q7KZF4",5.24
same,PRISMA enrichment of interactor (log2),"SPTY2D1, Q68D10",4.67
same,PRISMA enrichment of interactor (log2),"TBC1D4, O60343",7.47
same,PRISMA enrichment of interactor (log2),"TBL2, Q9Y4P3",5.51
same,PRISMA enrichment of interactor (log2),"THYN1, Q9P016",4.96
same,PRISMA enrichment of interactor (log2),"TMA16, Q96EY4",5.05
same,PRISMA enrichment of interactor (log2),"UTP11, Q9Y3A2",4.7
same,PRISMA enrichment of interactor (log2),"UTP15, Q8TED0",5.11
same,PRISMA enrichment of interactor (log2),"ZC2HC1A, Q96GY0",5.97
same,PRISMA enrichment of interactor (log2),"ZC3HAV1L, Q96H79",4.28
same,PRISMA enrichment of interactor (log2),"ZNF22, P17026",5.65
same,PRISMA enrichment of interactor (log2),"ZNF512, Q96ME7",6.34
same,PRISMA enrichment of interactor (log2),"ZNF706, Q9Y5V0",4.98
same,PRISMA enrichment of interactor (log2),"ZNF768, Q9H5H4",8.02

# Reformatted with tabs: part of the list above
binder	measurement	setting	value
MAEAGDFW [INSIG2]	PRISMA enrichment of interactor (log2)	THYN1, Q9P016	4.96
same	PRISMA enrichment of interactor (log2)	TMA16, Q96EY4	5.05
